Structures can show the parent of a compound that is named as a salt. The list shows a part of the results. Hit calls seldom repeat between salt and free forms of one compound.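 Kinases were expressed as nanoluciferase fusions in K562 cells and luminescence was read every 4 h between 2 and 18 h as percent of control, DMSO set to 100% and a positive control to 0%. A time point counts as decreased when the signal drops significantly (2 sigma). The hit call is the authors' own, does not follow from the count of time points alone, and its rule is not shown.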
Molecular target: PDGFRB (UniProt P09619)
Assay: kinase-Nluc reporter destabilization hit call (1 = scored as downregulated) (binary); higher = compound decreases kinase abundance
Settings: K562; 2-18 h

Protein sequences, listed by entry. Tags and fused reporters are not part of them.
UniProt P09619, whole entry: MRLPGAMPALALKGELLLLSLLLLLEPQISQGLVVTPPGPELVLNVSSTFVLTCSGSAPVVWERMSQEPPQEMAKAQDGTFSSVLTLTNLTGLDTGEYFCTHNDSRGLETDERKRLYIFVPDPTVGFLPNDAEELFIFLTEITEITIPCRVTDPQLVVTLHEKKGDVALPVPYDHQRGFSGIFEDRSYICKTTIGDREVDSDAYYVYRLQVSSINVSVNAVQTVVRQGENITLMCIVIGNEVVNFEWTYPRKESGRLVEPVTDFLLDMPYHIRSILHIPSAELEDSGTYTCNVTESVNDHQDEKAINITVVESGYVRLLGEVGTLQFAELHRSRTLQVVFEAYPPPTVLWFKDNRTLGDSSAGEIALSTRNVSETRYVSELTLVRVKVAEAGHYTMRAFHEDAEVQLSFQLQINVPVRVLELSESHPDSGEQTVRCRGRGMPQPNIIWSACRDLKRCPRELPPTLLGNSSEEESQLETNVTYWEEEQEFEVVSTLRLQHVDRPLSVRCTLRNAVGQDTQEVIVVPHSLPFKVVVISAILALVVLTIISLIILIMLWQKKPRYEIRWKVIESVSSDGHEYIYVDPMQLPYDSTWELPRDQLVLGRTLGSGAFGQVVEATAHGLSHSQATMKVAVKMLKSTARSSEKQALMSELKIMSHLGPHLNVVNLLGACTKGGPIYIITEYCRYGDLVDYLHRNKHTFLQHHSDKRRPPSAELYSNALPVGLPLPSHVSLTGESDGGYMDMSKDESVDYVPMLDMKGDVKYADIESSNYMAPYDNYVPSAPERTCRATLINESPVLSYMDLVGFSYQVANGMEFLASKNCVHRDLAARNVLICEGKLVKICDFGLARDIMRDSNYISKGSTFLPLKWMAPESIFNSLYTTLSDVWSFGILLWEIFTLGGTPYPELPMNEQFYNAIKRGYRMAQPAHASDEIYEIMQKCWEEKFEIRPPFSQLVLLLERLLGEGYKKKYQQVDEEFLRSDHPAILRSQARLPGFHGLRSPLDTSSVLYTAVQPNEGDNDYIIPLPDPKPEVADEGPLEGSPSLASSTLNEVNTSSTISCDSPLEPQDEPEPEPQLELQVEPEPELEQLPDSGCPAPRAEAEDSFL
UniProt Q15118, whole entry, looked up: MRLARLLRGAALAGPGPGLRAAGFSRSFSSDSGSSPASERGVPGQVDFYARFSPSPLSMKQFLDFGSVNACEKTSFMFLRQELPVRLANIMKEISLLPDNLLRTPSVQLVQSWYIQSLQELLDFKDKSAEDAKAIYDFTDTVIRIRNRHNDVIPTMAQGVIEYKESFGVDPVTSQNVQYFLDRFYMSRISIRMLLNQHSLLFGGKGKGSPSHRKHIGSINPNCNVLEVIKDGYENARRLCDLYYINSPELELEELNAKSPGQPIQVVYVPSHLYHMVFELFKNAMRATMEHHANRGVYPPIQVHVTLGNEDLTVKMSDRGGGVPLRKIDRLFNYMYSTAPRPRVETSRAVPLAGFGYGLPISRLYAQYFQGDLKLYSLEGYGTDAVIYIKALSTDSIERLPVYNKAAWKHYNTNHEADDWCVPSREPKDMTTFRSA

kinase-Nluc reporter destabilization hit call, inactive:
CC(=O)Nc1nc(C)c(-c2nc(N3CCCC(O)C3)no2)s1 (configuration not stated) (10 µM) 0
CCc1ccc(C(=O)COc2ccc(CC3SC(=O)NC3=O)cc2)nc1 (configuration not stated) (10 µM) 0
NC(=O)c1ccc(-c2cnn3ccc(NCc4cccnc4)nc23)cc1 (2.5 µM) 0
Nc1[nH]c(=O)nc2c1ncn2[C@@H]1O[C@H](CO)[C@@H](O)[C@H]1O [Crotonoside] (10 µM) 0
CC1(COc2ccc3c(c2)ncn3-c2ccc3cccc(N4CCC(N)CC4)c3n2)COC1 [Crenolanib] (2.5 µM) 0
CSc1ccc(CN2CCCC(Nc3ccc4[nH]ncc4c3)C2)cc1 (configuration not stated) [Rho-Kinase-IN-1] (10 µM) 0
N=C(N)NC(=N)NCCc1ccccc1 [Phenformin (hydrochloride)] (10 µM) 0
C=C(F)C(=O)N1CCN(c2nc(OC[C@@H]3CCCN3C)nc3c2CCN(c2cccc4cccc(Cl)c24)C3)C[C@@H]1CC#N (2.5 µM) 0

Molecular target: PDK1 (UniProt Q15118)
Assay: as above
Settings: K562; 2-18 h

kinase-Nluc reporter destabilization hit call, inactive:
CN(C)c1nc2c(Br)c(Br)c(Br)c(Br)c2n1CC(=O)O (10 µM) 0
COc1cc(N2CCC(N(C)C)CC2)ccc1Nc1ncc(Cl)c(Nc2ccccc2P(C)(C)=O)n1 (2.5 µM) 0
CC(C)C[C@H](NC(=O)[C@H](CCCCN)NC(=O)[C@H](CO)NC(=O)[C@@H](N)CC(C)C)C(N)=O [LSKL, Inhibitor of Thrombospondin (TSP-1) (TFA)] (10 µM) 0
O=C(Nc1ccc(Cl)c(Cl)c1)Nc1ccc2nnsc2c1 (10 µM) 0
CC(C)Oc1ccc(-c2cnc3c(-c4ccnc5ccccc45)cnn3c2)cc1 (10 µM) 0
O=C(CCCCCn1cc(Nc2ncc(Cl)c(Nc3ccc(Cl)cc3)n2)cn1)NO (2.5 µM) 0
CC(=O)NCCc1c[nH]c2ccc(O)cc12 [N-Acetyl-5-hydroxytryptamine] (10 µM) 0
O=C(c1ccc(Nc2nccc(-c3cc4ccccc4s3)n2)cc1)N1CCC(N2CCCC2)CC1 (2.5 µM) 0
C=CC(=O)N1CCC[C@@H](n2nc(C(=O)Nc3ccc(CC(=O)N(C)C)c(C)c3C)c3c(N)ncnc32)C1 (10 µM) 0
CC(CCc1ccccn1)(CCc1ccccn1)C(=O)c1ccccc1 (10 µM) 0
CC[C@@H]1[C@H](F)C(=O)N[C@@H]1COc1nccc2cc(C(N)=O)c(OC)cc12 (10 µM) 0
Nc1cc(C(F)F)c(-c2nc(N3C4CCC3COC4)nc(N3C4CCC3COC4)n2)cn1 (2.5 µM) 0
Oc1ccccc1C(=S)N1CCCC1 (10 µM) 0
COc1ccc(-n2c(C)c([N+](=O)[O-])c3ccc(O)cc32)cc1 (10 µM) 0
CN(C)Cc1cccc(N=C(c2ccccc2)c2c(O)[nH]c3cc(C(N)=O)ccc23)c1 (10 µM) 0
CCCCNC(=N)NC(=N)N [Buformin (hydrochloride)] (2.5 µM) 0
O=c1ccoc2cc(O)ccc12 [7-Hydroxy-4H-chromen-4-one] (10 µM) 0
C=CC(=O)Nc1cccc(-n2c(=O)cc(C)c3cnc(Nc4ccc(OCCN(C)C)cc4OC)nc32)c1 (10 µM) 0
O=c1[nH]ccc2cc(OC3CCNCC3)ccc12 (10 µM) 0
CCCCOc1ccc(CC/C=C2\SC(=O)N(CCN)C2=O)cc1 [K145 (hydrochloride)] (2.5 µM) 0
CC(C)(O)[C@@H]1CC[C@](C)([C@H]2[C@@H](O)C[C@@]3(C)[C@@H]4C[C@H](O[C@@H]5O[C@H](CO)[C@@H](O)[C@H](O)[C@H]5O)[C@H]5C(C)(C)[C@@H](O[C@@H]6OC[C@@H](O)[C@H](O)[C@H]6O[C@@H]6O[C@H](CO)[C@@H](O)[C@H](O)[C@H]6O)CC[C@@]56C[C@@]46CC[C@]23C)O1 [Astragaloside VI] (10 µM) 0
O=C1NC(=O)C(c2cn(-c3ccccc3)nc2-c2ccc(F)cc2)N1 (configuration not stated) (10 µM) 0
C[C@@H]1COCCN1c1cc(C2([S@](C)(=N)=O)CC2)nc(-c2cc[nH]c3nccc2-3)n1 [Ceralasertib] (2.5 µM) 0
CN(C)Cc1cccc(N=C(c2ccccc2)c2c(O)[nH]c3cc(C(=O)N(C)C)ccc23)c1 (10 µM) 0
CN1CCN(CCCNc2ncc(Cl)c(-c3cc4c(C(=O)NC5CC5)cccc4s3)n2)CC1 (10 µM) 0
CC[C@H](Nc1ncnc2[nH]cnc12)c1oc2ccccc2c(=O)c1-c1cccc(F)c1 [Tenalisib] (10 µM) 0
O=C1NC(=O)C(c2cnc3ccccn23)=C1c1cn2c3c(cc(F)cc13)CN(C(=O)N1CCCCC1)CC2 (2.5 µM) 0
COc1c(C)c(C(=O)c2ccc(N)c(C(=O)O)c2)n2ccccc12 (10 µM) 0
N#Cc1ccc(-c2c(-c3ncn[nH]3)sc(N3CCOCC3)c2C#N)c(F)c1 (10 µM) 0
N#C/C(=C(/N)Sc1ccc(N)cc1)c1ccccc1C(F)(F)F (10 µM) 0
O=C(Nc1ccc(Cl)cc1)C1CCCN(C(=O)c2cccc(-c3ccco3)c2)C1 (configuration not stated) (2.5 µM) 0
CC(=O)Nc1nc(C)c(-c2nc(N3CCCC(O)C3)no2)s1 (configuration not stated) (10 µM) 0
CCc1ccc(C(=O)COc2ccc(CC3SC(=O)NC3=O)cc2)nc1 (configuration not stated) (10 µM) 0
NC(=O)c1ccc(-c2cnn3ccc(NCc4cccnc4)nc23)cc1 (2.5 µM) 0
Nc1[nH]c(=O)nc2c1ncn2[C@@H]1O[C@H](CO)[C@@H](O)[C@H]1O [Crotonoside] (10 µM) 0
CC1(COc2ccc3c(c2)ncn3-c2ccc3cccc(N4CCC(N)CC4)c3n2)COC1 [Crenolanib] (2.5 µM) 0
CSc1ccc(CN2CCCC(Nc3ccc4[nH]ncc4c3)C2)cc1 (configuration not stated) [Rho-Kinase-IN-1] (10 µM) 0
N=C(N)NC(=N)NCCc1ccccc1 [Phenformin (hydrochloride)] (10 µM) 0
C=C(F)C(=O)N1CCN(c2nc(OC[C@@H]3CCCN3C)nc3c2CCN(c2cccc4cccc(Cl)c24)C3)C[C@@H]1CC#N (2.5 µM) 0
